# Hit rate of the full screen: of about 320,000 compounds, about 22,000 (6.9%) were called active. Inconclusive results, whose numbers are uncertain, are shown with a selection of clear calls. Calls come from the whole dose curve; as a rule, active = well fitted inhibition curve with a large enough effect; inconclusive = small, poorly fitted or top-dose-only effect, or another doubt; inactive = no such curve, though single readings can be large or run the other way. A potency beside an inconclusive call is a rough fit, not a confirmed value.
# Assay: Primary qHTS for delayed death inhibitors of the malarial parasite plastid, 96 hour incubation
# Details: P. falciparum luciferase reporter growth; series mostly up to 28.7 µM
# How it was run: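 Luminescence readout: decreased luciferase signal marks inhibited growth of reporter-expressing P. falciparum in infected red cells (2% hematocrit, 0.05% parasitemia final), exposed to compound two generations (96 h, 37 C, 5% CO2).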
# Potency is the fitted concentration of half-maximal effect.
row,Structure (SMILES),Potency
1,CCOc1cc(N2CCOCC2)c(OCC)cc1NC(=O)c1ccccc1C,inactive
2,CCN(CC)c1ccc(C2Nc3cccc4cccc(c34)N2)cc1,"inconclusive: 10.4 µM [inhibitor, single point]"
3,O=[N+]([O-])c1ccccc1OCCNCc1ccccc1,inactive
4,COCCCNC(=O)CCn1c(=O)c2ccccc2n(CC(=O)NCCC2=CCCCC2)c1=O,"inconclusive: 10.4 µM [inhibitor, single point]"
5,O=c1cc(-c2ccc(O)cc2)oc2ccc3ccccc3c12,inactive
6,Cn1c2ccccc2c(=O)c2cc(C#Cc3ccc(N)cc3)ccc21,"inconclusive: 18.5 µM [inhibitor, single point]"
7,NCC(O)CC(=O)O (stereo unspecified),inactive
8,CCC1CCCCN1CCCNC(=O)C1CCN(S(=O)(=O)N2CCC3(CC2)OCCO3)CC1 (stereo unspecified),"inconclusive: 1.47 µM [inhibitor, partial curve, poor fit]"
9,COc1ccc(C(=O)NCC2COc3ccccc3O2)cc1S(=O)(=O)N1CCOCC1 (stereo unspecified),"inconclusive: 18.5 µM [inhibitor, single point]"
10,CC(=O)Nc1ccc(NC(=O)CC2CCCC2)cc1,inactive
11,O=C(NCCc1ccc(Cl)cc1)C1CCN(C(=O)N2CCOc3ccccc32)CC1,"inconclusive: 18.5 µM [inhibitor, single point]"
12,COc1ccc([C@@H]2[C@@H]3C(=O)N(C(C)(C)C)C(=O)[C@@H]3[C@]3(Cc4ccccc4)C(=O)N(c4cccc(Cl)c4)C(=O)N23)cc1,active: 9.28 µM
13,Cc1cc(C(=O)CCl)c(C)n1-c1cccc([N+](=O)[O-])c1,"inconclusive: 18.5 µM [inhibitor, single point]"
14,Cc1c(C)c2ccc(OC(C)C(=O)N3CC[C@@]4(O)CCCC[C@H]4C3)c(C)c2oc1=O (stereo partly specified),"inconclusive: 11.7 µM [inhibitor, partial curve, poor fit]"
15,O=C(CC1SC(N2CCCCC2)=NC1=O)Nc1ccc(C(=O)NCCc2ccc(F)cc2)cc1 (stereo unspecified),"inconclusive: 18.5 µM [inhibitor, single point]"
16,CC(=O)Nc1ccccc1C(=O)C(=O)NCCc1ccccc1,"inconclusive: 4.15 µM [inhibitor, single point]"
17,COc1ccccc1OCCOCCOc1ccc(C)cc1Br,"inconclusive: 10.4 µM [inhibitor, single point]"
18,COc1ccc(OC)c(CN2CCN(C(=O)c3cc4ccccc4cc3O)CC2)c1,active: 2.33 µM
19,CCn1ccc(C(=O)Nc2c(C)nn(Cc3c(F)c(F)c(F)c(F)c3F)c2C)n1,"inconclusive: 18.5 µM [inhibitor, single point]"
20,CCOC(=O)c1cccc(Nc2ncnc3ccccc23)c1,inactive
21,CC1CCN(C2=NC(=O)/C(=C/c3cn(-c4ccccc4)nc3-c3cccc(S(=O)(=O)N(C)C)c3)S2)CC1,"inconclusive: 1.65 µM [inhibitor, full curve, poor fit]"

# Among those listed so far, these have four or more nitrogen atoms.
row,Structure (SMILES),Potency
4,COCCCNC(=O)CCn1c(=O)c2ccccc2n(CC(=O)NCCC2=CCCCC2)c1=O,"inconclusive: 10.4 µM [inhibitor, single point]"
8,CCC1CCCCN1CCCNC(=O)C1CCN(S(=O)(=O)N2CCC3(CC2)OCCO3)CC1 (stereo unspecified),"inconclusive: 1.47 µM [inhibitor, partial curve, poor fit]"
15,O=C(CC1SC(N2CCCCC2)=NC1=O)Nc1ccc(C(=O)NCCc2ccc(F)cc2)cc1 (stereo unspecified),"inconclusive: 18.5 µM [inhibitor, single point]"
19,CCn1ccc(C(=O)Nc2c(C)nn(Cc3c(F)c(F)c(F)c(F)c3F)c2C)n1,"inconclusive: 18.5 µM [inhibitor, single point]"
21,CC1CCN(C2=NC(=O)/C(=C/c3cn(-c4ccccc4)nc3-c3cccc(S(=O)(=O)N(C)C)c3)S2)CC1,"inconclusive: 1.65 µM [inhibitor, full curve, poor fit]"

# (more compounds)

row,Structure (SMILES),Potency
1,Cc1cc2ccccn2c1C(=O)c1ccc([N+](=O)[O-])o1,"inconclusive: 5.22 µM [inhibitor, partial curve, poor fit]"
2,CC(=NC(C)C)C1=C(O)C(C)OC1=O (stereo unspecified),inactive
3,Cc1cc(Cl)c(S(=O)(=O)N2CCCCCC2)cc1OCC(N)=O,"inconclusive: 4.15 µM [inhibitor, single point]"
4,COc1cccc(-c2nc(C(N)=O)c3[nH]c(=O)n(-c4cccc(Cl)c4)c3n2)c1OC,"inconclusive: 11.7 µM [inhibitor, single point]"
5,Cc1cc([N+](=O)[O-])nn1CCCC(=O)Nc1ccc2c(c1)OCO2,"inconclusive: 1.85 µM [inhibitor, partial curve]"
6,Cc1c(-c2ccncc2)oc2ccc(Br)cc2c1=O,"inconclusive: 13.1 µM [inhibitor, single point]"
7,Cc1cc(C)c(C)c(S(=O)(=O)N2CCC(C(=O)NCc3ccco3)CC2)c1C,"inconclusive: 14.7 µM [inhibitor, partial curve, poor fit]"
8,COc1ccc(CC(NC(C)=O)C(=O)NC2CCN(c3c(Cc4ccccc4)c(C)nc4ncnn34)CC2)cc1OC (stereo unspecified),"inconclusive: 10.4 µM [inhibitor, single point]"
9,CCOC(=O)C(C)n1cnc2c(nnn2-c2ccccc2)c1=O (stereo unspecified),"inconclusive: 0.738 µM [inhibitor, full curve, poor fit]"
10,Cc1cc(C)cc(CC2CC(=O)N(c3ccc([N+](=O)[O-])cc3)C2=O)c1 (stereo unspecified),"inconclusive: 10.4 µM [inhibitor, partial curve, poor fit]"
11,Cc1ccc(C(C(=O)NC2CCCC2)N(C(=O)CNC(=O)c2ccco2)c2ccccc2)o1 (stereo unspecified),"inconclusive: 14.7 µM [inhibitor, partial curve, poor fit]"
12,COc1cccc(-c2nn(C)c3sc(C(=O)NCCCN(C)Cc4ccccc4)cc23)c1,inactive
13,COC(=O)[C@]1(Cc2ccccc2)N[C@H](c2ccc(-c3ccc(OC)cc3)cc2)[C@@H]2C(=O)N(C)C(=O)[C@@H]21,"inconclusive: 1.85 µM [inhibitor, partial curve]"
14,COc1ccc(-c2csc(NC(=O)CCn3cnc4ccccc4c3=O)n2)cc1OC,"inconclusive: 9.28 µM [inhibitor, partial curve]"
15,CCOc1ccc(C(=O)COC(=O)CNC(=O)C2CCCCC2)cc1,inactive
16,COc1ccc(Br)cc1S(=O)(=O)Nc1ccc(Cl)cn1,inactive
17,COc1ccc(C(CNC(=O)C(CCSC)NC(=O)c2ccccc2Cl)N2CCCCC2)cc1 (stereo unspecified),"inconclusive: 18.5 µM [inhibitor, single point]"
18,Cc1cccc([C@@H]2[C@@H]3C(=O)N(Cc4ccccc4)C(=O)[C@@H]3[C@]3(CC(C)C)C(=O)N(c4cccc(Cl)c4)C(=O)N23)c1,"inconclusive: 4.15 µM [inhibitor, full curve, poor fit]"
19,O=C(OCC(=O)N1CCOCC1)c1ccccc1Cc1ccccc1,inactive
20,COc1cc(OC)cc(-c2nnc(NC(=O)c3ccc4c(c3)OCCO4)o2)c1,"inconclusive: 14.7 µM [inhibitor, single point]"

# — PubChem BioAssay AID504834 (National Center for Advancing Translational Sciences (NCATS), 2011)
